Results are given in words; binding and its absence hold for the method and conditions named. Binding seen in cells or lysates may run through a third protein. Here binding means that the protein was enriched with, or labelled near, the bait; the list need not be complete. For part of these data: Tags and fused reporters may be left off the sequences shown.

Amino acid sequences for entries named in this document (tags omitted). A change or cut given only in a name is not applied to a line headed by its entry. Chains listed by the source or under a name are the forms on record and can include a tag or linker.
GFP-Nup185 (I7MFN0, form named): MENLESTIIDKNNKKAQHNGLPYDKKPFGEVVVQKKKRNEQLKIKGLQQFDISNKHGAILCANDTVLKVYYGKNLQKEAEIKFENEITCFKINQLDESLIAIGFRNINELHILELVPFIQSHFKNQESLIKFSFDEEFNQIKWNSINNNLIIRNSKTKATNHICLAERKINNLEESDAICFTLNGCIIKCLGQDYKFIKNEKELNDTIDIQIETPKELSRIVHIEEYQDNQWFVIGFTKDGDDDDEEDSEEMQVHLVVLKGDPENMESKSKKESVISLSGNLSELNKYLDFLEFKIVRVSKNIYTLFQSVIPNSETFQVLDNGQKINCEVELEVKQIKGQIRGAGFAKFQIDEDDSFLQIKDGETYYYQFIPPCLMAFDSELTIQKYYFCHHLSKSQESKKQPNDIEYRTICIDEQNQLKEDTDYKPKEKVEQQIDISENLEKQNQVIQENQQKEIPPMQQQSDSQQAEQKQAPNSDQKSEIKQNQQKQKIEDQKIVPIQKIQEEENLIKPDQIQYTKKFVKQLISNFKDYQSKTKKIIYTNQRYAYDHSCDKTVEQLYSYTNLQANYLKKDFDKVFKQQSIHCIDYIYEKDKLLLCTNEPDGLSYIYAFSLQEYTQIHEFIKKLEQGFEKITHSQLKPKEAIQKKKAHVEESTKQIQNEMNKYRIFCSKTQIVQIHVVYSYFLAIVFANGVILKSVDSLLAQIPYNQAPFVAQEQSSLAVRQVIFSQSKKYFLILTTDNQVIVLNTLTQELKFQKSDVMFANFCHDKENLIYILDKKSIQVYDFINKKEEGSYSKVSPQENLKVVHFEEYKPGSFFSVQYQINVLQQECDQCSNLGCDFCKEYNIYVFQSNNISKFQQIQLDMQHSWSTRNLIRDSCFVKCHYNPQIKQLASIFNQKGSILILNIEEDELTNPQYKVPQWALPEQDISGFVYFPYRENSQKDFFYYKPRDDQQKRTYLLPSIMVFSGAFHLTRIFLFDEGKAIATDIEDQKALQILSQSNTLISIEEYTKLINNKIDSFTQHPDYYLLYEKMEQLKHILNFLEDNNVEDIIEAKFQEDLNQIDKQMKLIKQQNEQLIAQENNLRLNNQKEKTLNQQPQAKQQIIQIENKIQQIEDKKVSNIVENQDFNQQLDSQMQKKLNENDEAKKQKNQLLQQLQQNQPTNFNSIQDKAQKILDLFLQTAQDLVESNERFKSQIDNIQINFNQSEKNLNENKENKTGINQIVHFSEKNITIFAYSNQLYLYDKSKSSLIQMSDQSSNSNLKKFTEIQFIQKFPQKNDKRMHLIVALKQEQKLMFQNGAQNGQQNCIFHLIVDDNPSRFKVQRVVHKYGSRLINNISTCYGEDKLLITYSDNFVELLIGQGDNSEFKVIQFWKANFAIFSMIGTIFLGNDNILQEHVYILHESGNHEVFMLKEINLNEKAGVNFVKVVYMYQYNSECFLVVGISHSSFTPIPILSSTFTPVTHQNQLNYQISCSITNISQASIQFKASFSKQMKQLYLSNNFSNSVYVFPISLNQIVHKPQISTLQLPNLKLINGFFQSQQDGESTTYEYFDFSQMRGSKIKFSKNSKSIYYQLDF
UniProt Q236D1: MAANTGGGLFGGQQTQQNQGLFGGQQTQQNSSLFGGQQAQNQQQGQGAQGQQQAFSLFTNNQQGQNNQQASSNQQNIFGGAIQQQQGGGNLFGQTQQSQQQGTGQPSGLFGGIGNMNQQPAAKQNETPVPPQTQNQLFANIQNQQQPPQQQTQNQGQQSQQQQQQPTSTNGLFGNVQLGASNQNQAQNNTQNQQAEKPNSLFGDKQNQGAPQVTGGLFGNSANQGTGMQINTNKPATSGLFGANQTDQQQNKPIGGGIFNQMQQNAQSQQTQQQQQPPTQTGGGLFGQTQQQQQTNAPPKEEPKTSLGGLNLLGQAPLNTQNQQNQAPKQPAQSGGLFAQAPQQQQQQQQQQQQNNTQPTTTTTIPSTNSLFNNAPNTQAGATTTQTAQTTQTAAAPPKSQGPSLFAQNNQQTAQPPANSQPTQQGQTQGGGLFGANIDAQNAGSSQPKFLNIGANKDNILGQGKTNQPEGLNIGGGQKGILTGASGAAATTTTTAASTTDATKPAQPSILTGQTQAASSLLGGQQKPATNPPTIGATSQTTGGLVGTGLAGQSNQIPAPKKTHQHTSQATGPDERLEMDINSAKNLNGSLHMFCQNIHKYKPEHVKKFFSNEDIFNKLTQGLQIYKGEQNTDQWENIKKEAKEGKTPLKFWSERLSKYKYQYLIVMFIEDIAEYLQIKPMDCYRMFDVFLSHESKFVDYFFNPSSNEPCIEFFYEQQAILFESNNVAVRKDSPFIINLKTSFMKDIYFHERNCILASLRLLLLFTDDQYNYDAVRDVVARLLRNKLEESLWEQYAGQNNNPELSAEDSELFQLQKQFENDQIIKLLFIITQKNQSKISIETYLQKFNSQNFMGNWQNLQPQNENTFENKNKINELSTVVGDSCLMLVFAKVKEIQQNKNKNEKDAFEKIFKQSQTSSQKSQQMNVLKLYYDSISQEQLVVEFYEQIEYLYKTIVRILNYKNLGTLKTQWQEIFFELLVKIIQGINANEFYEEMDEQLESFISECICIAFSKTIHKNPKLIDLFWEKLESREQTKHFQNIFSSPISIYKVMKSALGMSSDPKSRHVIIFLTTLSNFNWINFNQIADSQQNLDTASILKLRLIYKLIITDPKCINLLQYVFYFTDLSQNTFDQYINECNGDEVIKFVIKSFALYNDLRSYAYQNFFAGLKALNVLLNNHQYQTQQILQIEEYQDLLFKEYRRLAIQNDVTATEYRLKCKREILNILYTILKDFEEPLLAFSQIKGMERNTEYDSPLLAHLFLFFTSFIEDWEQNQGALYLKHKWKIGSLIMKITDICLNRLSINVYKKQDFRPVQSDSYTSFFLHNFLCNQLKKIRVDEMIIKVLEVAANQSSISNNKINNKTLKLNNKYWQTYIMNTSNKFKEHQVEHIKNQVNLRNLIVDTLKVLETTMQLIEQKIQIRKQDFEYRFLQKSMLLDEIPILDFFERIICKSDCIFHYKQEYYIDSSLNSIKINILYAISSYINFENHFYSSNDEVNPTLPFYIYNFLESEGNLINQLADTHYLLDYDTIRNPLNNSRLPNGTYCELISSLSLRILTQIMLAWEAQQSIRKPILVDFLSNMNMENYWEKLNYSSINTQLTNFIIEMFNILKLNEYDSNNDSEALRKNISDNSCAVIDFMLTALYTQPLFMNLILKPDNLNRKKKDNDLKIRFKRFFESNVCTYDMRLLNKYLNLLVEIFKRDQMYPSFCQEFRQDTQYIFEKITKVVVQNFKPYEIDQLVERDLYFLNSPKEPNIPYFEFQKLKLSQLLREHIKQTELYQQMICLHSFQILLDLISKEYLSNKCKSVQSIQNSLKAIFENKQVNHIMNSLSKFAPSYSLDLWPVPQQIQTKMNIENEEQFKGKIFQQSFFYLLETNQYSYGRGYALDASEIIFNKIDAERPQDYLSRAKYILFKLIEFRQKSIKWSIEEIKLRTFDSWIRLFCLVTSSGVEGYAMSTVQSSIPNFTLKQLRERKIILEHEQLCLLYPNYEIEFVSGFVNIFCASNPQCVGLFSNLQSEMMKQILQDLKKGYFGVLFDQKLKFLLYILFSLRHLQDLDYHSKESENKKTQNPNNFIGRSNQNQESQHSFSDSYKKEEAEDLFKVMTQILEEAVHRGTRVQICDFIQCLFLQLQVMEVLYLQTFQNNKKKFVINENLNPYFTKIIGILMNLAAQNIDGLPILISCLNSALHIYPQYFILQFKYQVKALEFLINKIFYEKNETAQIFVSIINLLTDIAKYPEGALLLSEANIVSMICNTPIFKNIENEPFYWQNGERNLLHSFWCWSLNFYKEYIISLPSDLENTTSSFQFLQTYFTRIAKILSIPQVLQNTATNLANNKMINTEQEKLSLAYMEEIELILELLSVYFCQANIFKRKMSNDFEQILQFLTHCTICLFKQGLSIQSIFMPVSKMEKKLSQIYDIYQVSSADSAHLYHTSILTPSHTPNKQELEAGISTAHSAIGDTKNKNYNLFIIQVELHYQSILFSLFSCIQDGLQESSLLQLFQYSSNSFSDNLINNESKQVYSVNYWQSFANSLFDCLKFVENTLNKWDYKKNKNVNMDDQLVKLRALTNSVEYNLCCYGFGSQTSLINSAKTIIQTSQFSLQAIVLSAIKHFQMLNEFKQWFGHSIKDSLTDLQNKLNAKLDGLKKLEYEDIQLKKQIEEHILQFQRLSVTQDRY

Assay [1] addresses T1, GFP-TtNup93 (Tetrahymena thermophila) (UniProt Q241A4).
T1 sequence: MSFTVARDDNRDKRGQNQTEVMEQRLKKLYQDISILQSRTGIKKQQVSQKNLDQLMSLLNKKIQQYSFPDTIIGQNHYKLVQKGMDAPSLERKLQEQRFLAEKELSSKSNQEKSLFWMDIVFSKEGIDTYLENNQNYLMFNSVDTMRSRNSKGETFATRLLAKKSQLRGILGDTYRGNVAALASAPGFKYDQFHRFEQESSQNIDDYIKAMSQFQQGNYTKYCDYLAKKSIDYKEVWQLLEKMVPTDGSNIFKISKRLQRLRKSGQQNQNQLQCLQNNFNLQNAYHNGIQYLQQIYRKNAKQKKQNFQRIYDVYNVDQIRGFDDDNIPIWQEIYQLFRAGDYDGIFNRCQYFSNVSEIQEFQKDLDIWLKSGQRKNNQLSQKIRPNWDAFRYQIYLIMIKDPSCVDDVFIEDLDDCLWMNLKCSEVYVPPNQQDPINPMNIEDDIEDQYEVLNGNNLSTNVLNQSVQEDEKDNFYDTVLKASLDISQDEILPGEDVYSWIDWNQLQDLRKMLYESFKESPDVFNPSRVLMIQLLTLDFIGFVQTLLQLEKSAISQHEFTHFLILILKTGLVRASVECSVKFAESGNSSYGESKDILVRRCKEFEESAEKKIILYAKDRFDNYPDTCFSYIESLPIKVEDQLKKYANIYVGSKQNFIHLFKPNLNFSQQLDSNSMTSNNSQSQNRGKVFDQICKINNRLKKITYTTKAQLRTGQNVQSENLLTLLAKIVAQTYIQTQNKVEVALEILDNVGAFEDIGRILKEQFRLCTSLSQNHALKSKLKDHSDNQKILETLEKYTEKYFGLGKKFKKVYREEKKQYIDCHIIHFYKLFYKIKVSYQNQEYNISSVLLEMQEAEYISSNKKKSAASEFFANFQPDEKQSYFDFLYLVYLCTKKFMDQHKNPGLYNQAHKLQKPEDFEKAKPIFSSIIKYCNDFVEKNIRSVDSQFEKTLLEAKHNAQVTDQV
As to the kind of experiment: affinity purification with mass spectrometry.

The target in assay [2] is GFP-Nup185 (Tetrahymena thermophila) (UniProt I7MFN0). As to the kind of experiment: affinity purification with mass spectrometry.

On to Nup308 (from UniProt Q236D1 1-2675), for which, in assay [1], the binding entry was “binds”.

B1: TtTpr (protein, UniProt I7ME84 1-1392)
chain: MDSNQAADQEKQVEAQNEEQKQEQENNEQKENESEQAQTDPQISSGSNQKFDIEITDEDNDPEIENNQTIEQMKFKAYDLKAELKKVGNLAEELKVKFANLETDYDQCKDEKEELEKKYKQSIEKYGEMMKNYEHQIISLENENNIRIQQLQQQIDELKKQNEEKEQSYLNMQQQIKQDKQSFDDIQNKYEEINKHNQEQFKQNSDQWVKLVNLTEEVIFNFYNSNFFTENKDDISSQTHIILQHQQTFQQLIEKYVTFLAEQKEKNEAISDEAFNKIKSENGNGVQKTNQRVQDLQQKFEAYQQQFNKLNSESQENETKLQETKKQLEDLQNELGNKNNQIQELNEQHQKSQTEIQKLNEQITSNQQRIEELQKNENILVEKDKNINEIKEQLSALNQQIEGFKDIQNKLDTKTEEFEKLEKDFNQQKSELEEKIKSKDEEIENLSKKIQDIVEQQQEKQKQLDDLNSNLQNSNKENEQLKQEINDFKNKINNSNQDQEQQSNQLKAELKQTQEQLNDSQQKFEQADKELKDLKQQIEDEKVKLNDKSQESENLKDQLKSANEKLNESQQKLEQIQKNFDDLKQNNDLQKIVDEKQQKCEELERELKELKTQQEQVTAQVQQLNVEKEEIQTKFNQVEQEKEQLKKQEQEKIDLLSQAKQEKENNEQEINNLKQTIANLEKERTDIQIQSQEKDKQLDDAKHTLENLNKEIEQLKNQNQAIGDVNEKNKQLESEITQIKSEIEQKNTEIQSLNSKNETEISEKKQQLEDHTKQVNQLNEQIHQLSTENENLKNEIQTNQNISQTKLTDLNSEIEGFQKEIEETKLQLDDKNTQLKGLQVKLEALEKQLLEKNEEIQKVNQQLKESEQKHEAIQKQNEELQNSLKTLEEKDYNQIQNDLNQQVSDLKQKEQDLNKQLDQKLQEINQIKQQLSNETSDFMKKNVQLQQTIQQLNQTISQYQEQIERIKTDLYQSQQEKSQLQSKLNEANREIQNKEDDLNKKVEIIAELEQNNKDLKINLHNYEVKSYDLDKERFDVLEIQIQHNKEQQVQYKQAEEKIQKLEEEIKKLLADKTDSLEKLQKEIKTEQVIGEEMSKKFRSNLAELQINNEQNSLENSQKTINQLAEVVLRKVKDCFYSSTKIVQISRLFYDGSDGRNASQDNALSLIQELNEAQHASITIHKLLGFEYKKFKNILPIQYLRNDFKVINQTENTTQPLYVNENDQVAQYAIVNYEIQNNKFYVGLIQFDVVSTYFRVGFVPVNPQTKQEQWGEAIYANFCLNHEAANSKNYRNLVRINHFNPIFSIKKGYIYIRFNIQKNIFQFCDTNYQLSELSKCQFKSDLHYKLFIGMKETKGHFQIVDLKEQSRDEDINIMTQIFSNEQPQFEDLIRLFI
For the molecule B1, in assay [2], the binding result is on record as “binds”.

B2: TtNup58 (protein, UniProt Q23K55 1-390)
chain: MSLFNQNQGVQIGGQKPGGLFQTTTTGQQGGGLFNNQPSLQLGGNQTGGLPVFGGNQQPAAGGTIFNNPIGQQAPAQGQGGIFANQKPIVQNQTQTNNQQQIQHTVQSQTWKEAKQLYQQLQNVKKEQISIERDVNVSDNNNIYAHKPVNILPKEFFDELTNINKDIQKTEQDVAKLVDSQRELFNQIQETRKVIQQSSLSLKQTAQQVKDIQETVNELITEQQDQKQYITNFFYTFTNYLENHQFPRLILPQPFIIKAQEKFQLKLEKLQRQIDEVEQMLQVEIQKRNDEEELAFIFVIVEQLFKYFNNVTALVYEFHKHYESFRMKIVHIQDQREFGFASDLNESTKQSLNEENRYFKLLSNISDNLEKQIRKHEEEQQIKQPNEKRI
Regarding B2, in assay [1], the binding result is given as “binds”.
